Laboratory results as given in article PMC12329598.
Results are given in words; binding and its absence hold for the method and conditions named. In cells and extracts the contact can be indirect. Some entries that bind do so weakly or less than the wild type.

Amino acid sequences for entries named in this document (tags omitted). A change or cut given only in a name is not applied to a line headed by its entry.
UniProt P47736: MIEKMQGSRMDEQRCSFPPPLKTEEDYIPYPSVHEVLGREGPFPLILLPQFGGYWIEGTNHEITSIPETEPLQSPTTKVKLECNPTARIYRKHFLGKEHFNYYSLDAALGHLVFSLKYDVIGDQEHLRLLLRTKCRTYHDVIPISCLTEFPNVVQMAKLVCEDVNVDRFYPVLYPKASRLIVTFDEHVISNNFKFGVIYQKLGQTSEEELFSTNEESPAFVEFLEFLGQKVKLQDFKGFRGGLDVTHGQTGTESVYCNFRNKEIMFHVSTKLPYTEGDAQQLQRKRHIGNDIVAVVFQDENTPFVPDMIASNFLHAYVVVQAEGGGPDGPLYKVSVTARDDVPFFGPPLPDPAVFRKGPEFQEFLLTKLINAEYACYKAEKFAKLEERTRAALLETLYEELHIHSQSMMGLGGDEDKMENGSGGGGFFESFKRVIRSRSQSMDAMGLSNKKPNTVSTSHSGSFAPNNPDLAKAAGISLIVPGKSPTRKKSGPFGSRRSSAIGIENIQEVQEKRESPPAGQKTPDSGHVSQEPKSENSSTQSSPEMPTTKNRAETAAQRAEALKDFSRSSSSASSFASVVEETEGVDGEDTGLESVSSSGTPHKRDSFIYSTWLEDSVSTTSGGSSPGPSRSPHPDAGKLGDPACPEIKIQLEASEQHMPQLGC
UniProt P09471: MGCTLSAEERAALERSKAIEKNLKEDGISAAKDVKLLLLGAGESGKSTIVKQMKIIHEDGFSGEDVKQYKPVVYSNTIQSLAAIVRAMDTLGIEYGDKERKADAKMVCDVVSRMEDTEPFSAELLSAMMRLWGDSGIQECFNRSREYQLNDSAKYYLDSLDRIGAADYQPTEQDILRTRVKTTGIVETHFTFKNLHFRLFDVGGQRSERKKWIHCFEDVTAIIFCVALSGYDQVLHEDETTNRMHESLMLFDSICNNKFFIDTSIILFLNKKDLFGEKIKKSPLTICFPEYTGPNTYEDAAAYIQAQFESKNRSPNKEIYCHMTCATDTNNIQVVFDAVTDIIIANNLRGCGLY

Experiments:
[1] = target: 2xFlag-Rap1GAP1a SmBiT (human) (UniProt P47736); assay: split reporter; Rap1GAP1a SmBiT (600 ng) co-transfected with HA-Gαo LgBiT (200 ng) in HEK cells, 24 h; live cells in HBSS with 10 μM furimazine; luminescence at 37 °C
2xFlag-Rap1GAP1a (human) = 2xFlag-Rap1GAP1a (human) (UniProt P47736); assay: co-IP; Flag-Rap1GAP1a co-expressed with HA-Gαo^(WT) or HA-Gαo^(Q205L) in A293 cells; modRIPA lysate; M2-Flag magnetic beads 2 h at 4 °C; Flag peptide elution; HA blot

Substance | binding [1] | binding (2xFlag-Rap1GAP1a (human))
HA-Gαo^(Q205L/A221D) LgBiT (from UniProt P09471 1-354) | binds | 
HA-Gαo^(Q205L) (from UniProt P09471 1-354) |  | binds
HA-Gαo^(Q205L/N242T) LgBiT (from UniProt P09471 1-354) | binds | 
HA-Gαo^(Q205L) LgBiT (from UniProt P09471 1-354) | binds | 
